About 210 (0.4%) of roughly 52,000 sequences were called active.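 The calls were made as follows: active = gene whose silencing raises cell survival under the drug, median off-target-corrected z-score across its silencing RNAs 2 or more; inactive = the rest.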 The list shows a part of the results.

This test can be described thus: Resistance to Poly (ADP-Ribose) Polymerase inhibitor: Gene Identification via Genome-wide siRNA Screen. Particulars: mouse BRCA2 R2336H ES cells, olaparib, CellTiter-Glo viability; active compounds read high. Put shortly: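 Genome-wide siRNA screen (3 siRNAs/gene, 20 nM) in mouse ES cells carrying hypomorphic BRCA2 R2336H; olaparib 500 nM added 48 h post-transfection, CellTiter-Glo viability 72 h later. Normalized to plate-median negative control; MAD z-scores, gene median, seed-adjusted.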
With “GCUGCAUUCGGUUACCACUTT against 4832415H08Rik”, the z-score was inactive: -1.2. As to GGCACUUUUUGGAAAAAACTT against Mkrn1, the z-score is inactive: 1.13.

With GCUAAAGCUAAGAUUGAAGTT against Poli, the z-score is inactive: 0.346.

Take GGAGUUGUGGAAUUCUCUATT against Extl2: the z-score was inactive: 0.0321. In the case of GGUCAAAGUUGGAAAUUGCTT against Acbd6, the z-score is inactive: 0.837. Take GGUCAACAGAAUGAAAAAUTT against Cbfa2t1h: the z-score is inactive: 0.271.

Consider GCCAUCAAAGAAUAUGUUUTT against Sf3b3, for which the z-score was inactive: -2.43. As to GGACAAGUCCUUUGCUGUGTT against Prkcbp1, the z-score is inactive: 1.43. With GAUAUGCAAGGAGGAGGCATT against BC061212, the z-score is inactive: -1.35. With GGAUCUAAGGUGAACAAGATT against Rpl3, the z-score is inactive: -3.62. Take CCCUGGGCAGUUUGCAUGUTT against Dgcr2: the z-score was inactive: 1.85. Consider AACCUCUCCUUCUUAGACATT against Olfr724, for which the z-score is inactive: -1.05. Consider GGAGAUGUCUGAUGUAACCTT against AW539457, for which the z-score was inactive: -0.899.

Turning to GCACGUAGUAAGAUGUUACTT against Rqcd1, the z-score is active: 2.53.

As to GGCGUACAACAACCUACAGTT against Siat7e, the z-score is inactive: -2.09. The figure for “CGGGUAACUACUAGGAAGGTT against 1700011F03Rik” is inactive: 0.504; for GCACAUUGGCUGUGAGUCATT against Hspa5bp1 it is inactive: 0.604. On to GGAAUUCAUCUGUUAGAUUTT against BC019943, for which the z-score is inactive: 2.59.

For the sequence CGUACCACGGAGGACUUAUTT against Dpf3, the z-score was inactive: -0.596. The value for GGAAAUCCUGGGACAGAACTT against Htatip2 was inactive: -0.511; that for GGCCAAAUACUGAAUAUUCTT against Ssb was inactive: 0.938. Regarding GGAGCUCUGAGGCUUAUAGTT against Prop1, the z-score was inactive: -1.91.

GGCCAUGAACUGGCAAAGCTT against Erbb2ip: the z-score is inactive: -0.112. The value for “GGUGAUACAGAUUCUAGGUTT against 4930546H06Rik” was inactive: -0.38; that for “CGAAGAGAGCUGCAUUAAATT against C030030A07Rik” was inactive: -1.01. Regarding GGGCUCUGCGCUACUUAAATT against Zfp358, the z-score was inactive: 1.41.

GCAACAUUCCAGGGCUGAATT against Dnmt3l: the z-score was inactive: 0.957. For the sequence GCGCAGUAUCCACUUCAAUTT against Pcsk7, the z-score was inactive: 0.0409. Turning to “CCAGAAGUGAUGGUUCAGUTT against 2700094K13Rik”, the z-score is inactive: -1.2. Turning to “GGAAUGAUAUUCUUGUUUCTT against 4930429H24Rik”, the z-score is inactive: 1.25. For the sequence GGAUGCCUUGAAGAAAUUATT against Olfr1044, the z-score was inactive: 2.01. GGAAGGACUGAGGUAUCAUTT against Gtf2f2: the z-score was inactive: -1.35. Take “GGACGCAUGGAUCAAAAAATT against 2210412D01Rik”: the z-score was inactive: 1.79. Regarding GGAAGAGGUUGAGAUCCAATT against Pogk, the z-score was inactive: 0.561. As for GGUAUUUGUGAAGACGUGUTT against AI894139, the z-score is inactive: 1.51. As to “GGUGUUGUCAGAAGUUUAATT against 9330176C04Rik”, the z-score was inactive: 0.674. The figure for GGUAUUUUGCUCAGUCCCGTT against Tcfap2b is inactive: 0.286. In the case of GGAAUGGAACUUGUCUGGGTT against Gpr37, the z-score was inactive: -0.0885. “GGGACUGUGUGUAAAGGACTT against 2410001H17Rik”: the z-score was inactive: 0.113. The value for GGAACGAGAAAUGAUCCAGTT against Ap1g1 was inactive: 0.0766; that for GCAGUGACCUGCCACUGAATT against Cd79b was inactive: -0.161; that for CGUAAAUAUGCCCGUAGUUTT against Plunc was inactive: -1.14. As for GCUCUAUACCUUACGGUCCTT against Llglh2, the z-score was inactive: 0.0343. For the sequence “GGUCUUCAAAAUCAUCCCUTT against 9030624L02Rik”, the z-score is inactive: 1.52.

With GCAUCCUGGCUUAUCCAUUTT against Hmgb1, the z-score was inactive: 2.28. For GGUAAAUGUGAAUGUAAGGTT against Ntn4, the z-score is inactive: 1.36. “GGGUCACUUGGAUUGUGGATT against 2310042M24Rik”: the z-score is inactive: 0.885. On to GGUAAUAACCCUUAAUAAGTT against MGC90611, for which the z-score was inactive: -0.00645.

In the case of GGAUGAGAUAUUCAGCCAGTT against Rshl1, the z-score was inactive: 0.426. CCAAAUGCAACAAAGGUAATT against Maob: the z-score was inactive: 0.734. GCUUCACUCUCUUCUUUGCTT against Olfr1463: the z-score is inactive: -1.05. As for “CCCUAGCCAUAUGGAAUAUTT against 9130230L23Rik”, the z-score is inactive: -1.36. As to “GGAGCAUUUAAGGUUUACUTT against 2700055A20Rik”, the z-score was inactive: -0.743.

As to “GGAAUCUCCUAGAAAUAUUTT against 4732496G21Rik”, the z-score is inactive: -0.94.

In the case of CCCUGAUUAAUGGUUCUAUTT against Sorl1, the z-score was inactive: -0.167. For the sequence GCCACGUACAUCCACUCUCTT against Pxmp4, the z-score is inactive: -0.114.

For GGAGUAUUUAUCAACGGCATT against Pax3, the z-score was inactive: 0.654. The value for GGAGUCCUGGUGCAAACUCTT against Cnil was inactive: 1.38; that for GGAUAGGAAGAAAAUGAAGTT against Slfn2 was inactive: -0.146; that for GGACUAUUACACAUUAGUGTT against Rbp3 was inactive: 1.99. On to GGCUAAGUUUUUAAAGAACTT against Ncald, for which the z-score was inactive: -0.124. In the case of GGACAAAAGACACAUGUUGTT against D4Wsu114e, the z-score was inactive: 0.582. Regarding “GGCCAUCCCACAGAUUUACTT against 5033405K12Rik”, the z-score is inactive: 0.951. Regarding GGUGGUUUGUGAUUGGCUUTT against Catnbip1, the z-score was inactive: 0.863. With GGUGGUUGUGCAAUAUAGUTT against Sca1, the z-score is inactive: -1.38. For the sequence GGAGAUCCUCUUCAACAUGTT against BC024502, the z-score is inactive: 0.658.

For the origin of these results see PubChem BioAssay AID1347423 (Functional Genomics Laboratory (NCATS/FGL), 2020).
